Measurements as given in PMC8195999.
These are yes or no findings as the source states them, for the method shown. In cells and extracts the contact can be indirect. Some entries that bind do so weakly or less than the wild type.

Sequences of proteins named here, by UniProt entry; tags and fusion partners are left off.
UniProt O54917: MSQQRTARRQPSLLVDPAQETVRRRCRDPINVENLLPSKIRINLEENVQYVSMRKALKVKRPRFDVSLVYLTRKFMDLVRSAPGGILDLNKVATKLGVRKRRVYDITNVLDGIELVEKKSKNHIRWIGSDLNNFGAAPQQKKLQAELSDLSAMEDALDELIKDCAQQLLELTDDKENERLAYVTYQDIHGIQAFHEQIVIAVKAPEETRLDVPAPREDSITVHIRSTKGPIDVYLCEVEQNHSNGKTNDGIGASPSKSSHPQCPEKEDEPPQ
UniProt P59178: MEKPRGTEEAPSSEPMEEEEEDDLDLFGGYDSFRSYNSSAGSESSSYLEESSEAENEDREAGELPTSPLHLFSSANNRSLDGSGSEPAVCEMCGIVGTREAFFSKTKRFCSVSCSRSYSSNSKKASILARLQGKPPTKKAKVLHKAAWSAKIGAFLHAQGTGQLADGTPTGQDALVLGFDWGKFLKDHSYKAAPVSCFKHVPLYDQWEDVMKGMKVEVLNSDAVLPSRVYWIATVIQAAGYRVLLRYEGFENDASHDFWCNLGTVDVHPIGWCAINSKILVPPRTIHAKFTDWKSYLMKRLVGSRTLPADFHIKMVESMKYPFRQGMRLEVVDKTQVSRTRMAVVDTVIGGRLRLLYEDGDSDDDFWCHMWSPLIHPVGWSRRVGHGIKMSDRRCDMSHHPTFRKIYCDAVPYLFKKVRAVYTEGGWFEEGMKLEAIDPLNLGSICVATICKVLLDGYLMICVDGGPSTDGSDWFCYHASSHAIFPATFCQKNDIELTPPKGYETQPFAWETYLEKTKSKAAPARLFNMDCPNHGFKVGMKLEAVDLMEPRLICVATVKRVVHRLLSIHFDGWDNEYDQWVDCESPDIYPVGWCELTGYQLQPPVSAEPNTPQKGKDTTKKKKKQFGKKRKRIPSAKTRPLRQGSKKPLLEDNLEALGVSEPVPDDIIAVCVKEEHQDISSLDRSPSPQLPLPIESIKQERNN
UniProt A2AWL7: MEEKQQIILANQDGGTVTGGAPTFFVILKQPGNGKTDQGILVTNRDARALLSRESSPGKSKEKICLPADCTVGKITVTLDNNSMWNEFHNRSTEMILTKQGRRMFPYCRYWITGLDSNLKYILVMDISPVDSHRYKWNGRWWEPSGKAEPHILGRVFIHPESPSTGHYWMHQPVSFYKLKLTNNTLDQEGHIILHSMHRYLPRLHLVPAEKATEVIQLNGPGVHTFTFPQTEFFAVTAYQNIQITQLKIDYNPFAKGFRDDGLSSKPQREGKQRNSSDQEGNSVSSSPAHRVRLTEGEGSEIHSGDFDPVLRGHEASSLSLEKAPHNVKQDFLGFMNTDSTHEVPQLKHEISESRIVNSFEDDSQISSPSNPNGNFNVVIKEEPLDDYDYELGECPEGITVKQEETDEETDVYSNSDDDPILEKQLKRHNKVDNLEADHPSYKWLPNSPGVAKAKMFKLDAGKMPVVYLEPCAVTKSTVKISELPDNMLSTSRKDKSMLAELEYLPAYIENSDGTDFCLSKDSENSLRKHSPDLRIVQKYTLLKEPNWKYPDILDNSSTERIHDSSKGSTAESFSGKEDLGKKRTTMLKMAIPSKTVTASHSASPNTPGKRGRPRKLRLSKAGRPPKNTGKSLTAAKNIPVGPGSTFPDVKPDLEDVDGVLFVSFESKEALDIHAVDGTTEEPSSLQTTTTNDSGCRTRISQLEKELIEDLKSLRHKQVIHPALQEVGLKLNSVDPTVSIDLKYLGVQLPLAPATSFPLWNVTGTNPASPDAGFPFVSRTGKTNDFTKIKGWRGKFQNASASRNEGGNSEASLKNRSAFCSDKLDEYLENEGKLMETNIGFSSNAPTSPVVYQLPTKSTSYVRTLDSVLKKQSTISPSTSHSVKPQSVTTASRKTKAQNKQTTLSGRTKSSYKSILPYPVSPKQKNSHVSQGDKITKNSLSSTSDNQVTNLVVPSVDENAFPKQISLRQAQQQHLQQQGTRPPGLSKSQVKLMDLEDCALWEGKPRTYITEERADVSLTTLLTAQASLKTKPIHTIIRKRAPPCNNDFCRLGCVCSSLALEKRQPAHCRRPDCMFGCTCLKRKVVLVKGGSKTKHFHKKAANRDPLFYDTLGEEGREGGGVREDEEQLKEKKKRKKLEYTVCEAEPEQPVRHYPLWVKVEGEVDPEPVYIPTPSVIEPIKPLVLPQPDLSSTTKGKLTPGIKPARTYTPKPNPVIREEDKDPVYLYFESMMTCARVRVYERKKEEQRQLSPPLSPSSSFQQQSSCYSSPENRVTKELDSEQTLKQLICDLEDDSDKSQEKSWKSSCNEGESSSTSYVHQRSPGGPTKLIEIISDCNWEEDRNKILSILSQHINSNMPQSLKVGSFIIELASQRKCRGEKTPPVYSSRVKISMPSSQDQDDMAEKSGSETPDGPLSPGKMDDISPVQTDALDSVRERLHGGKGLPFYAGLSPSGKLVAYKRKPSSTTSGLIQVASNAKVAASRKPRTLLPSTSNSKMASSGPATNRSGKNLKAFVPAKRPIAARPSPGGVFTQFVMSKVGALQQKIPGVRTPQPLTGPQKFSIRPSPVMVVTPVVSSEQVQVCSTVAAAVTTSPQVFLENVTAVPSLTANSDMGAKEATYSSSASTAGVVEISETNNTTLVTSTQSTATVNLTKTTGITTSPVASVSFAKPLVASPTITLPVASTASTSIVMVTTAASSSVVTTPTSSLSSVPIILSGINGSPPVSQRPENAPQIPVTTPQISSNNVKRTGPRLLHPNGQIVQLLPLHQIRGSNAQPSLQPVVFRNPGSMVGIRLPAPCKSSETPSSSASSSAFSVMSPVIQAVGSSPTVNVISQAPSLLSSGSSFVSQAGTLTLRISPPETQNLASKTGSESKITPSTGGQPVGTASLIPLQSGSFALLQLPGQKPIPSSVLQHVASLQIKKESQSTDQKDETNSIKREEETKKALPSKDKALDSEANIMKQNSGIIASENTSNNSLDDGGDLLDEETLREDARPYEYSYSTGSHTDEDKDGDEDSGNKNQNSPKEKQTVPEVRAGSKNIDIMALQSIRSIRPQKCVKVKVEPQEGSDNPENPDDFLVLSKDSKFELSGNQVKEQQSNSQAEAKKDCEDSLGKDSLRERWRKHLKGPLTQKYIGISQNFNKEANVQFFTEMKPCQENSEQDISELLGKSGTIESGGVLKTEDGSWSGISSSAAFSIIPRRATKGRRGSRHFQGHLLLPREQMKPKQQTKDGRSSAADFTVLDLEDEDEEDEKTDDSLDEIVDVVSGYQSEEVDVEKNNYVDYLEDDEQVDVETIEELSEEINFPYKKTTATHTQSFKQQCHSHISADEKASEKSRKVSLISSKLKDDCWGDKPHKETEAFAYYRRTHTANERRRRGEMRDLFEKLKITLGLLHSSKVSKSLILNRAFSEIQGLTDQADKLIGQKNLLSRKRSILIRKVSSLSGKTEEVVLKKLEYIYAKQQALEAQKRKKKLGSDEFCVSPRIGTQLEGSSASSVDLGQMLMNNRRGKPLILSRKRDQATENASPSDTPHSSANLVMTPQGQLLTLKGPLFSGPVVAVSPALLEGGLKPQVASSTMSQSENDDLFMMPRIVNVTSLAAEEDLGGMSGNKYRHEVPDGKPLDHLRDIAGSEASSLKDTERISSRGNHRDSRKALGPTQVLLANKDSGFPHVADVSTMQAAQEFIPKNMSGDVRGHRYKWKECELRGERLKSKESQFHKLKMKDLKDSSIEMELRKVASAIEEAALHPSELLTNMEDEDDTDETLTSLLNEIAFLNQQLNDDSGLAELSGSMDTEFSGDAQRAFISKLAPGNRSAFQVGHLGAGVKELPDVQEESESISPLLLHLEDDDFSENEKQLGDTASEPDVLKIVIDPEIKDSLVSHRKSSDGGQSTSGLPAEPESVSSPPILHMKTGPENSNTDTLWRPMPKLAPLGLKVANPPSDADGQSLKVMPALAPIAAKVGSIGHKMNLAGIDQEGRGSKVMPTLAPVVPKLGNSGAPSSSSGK

Target: 3×HA-E2F6 (UniProt O54917)
Test: co-IP; anti-HA magnetic beads (Pierce) on 1 mg nuclear extract of E14TG2a ESCs expressing 3×HA-E2F6, overnight at 4 °C; wash 15 mM Tris pH 8, 150 mM NaCl, 0.05% Triton; western blotting; control: E14TG2a cells not expressing 3×HA-E2F6

binding	Molecule
binds	L3MBTL2 (from UniProt P59178 1-703)
binds	MGA (from UniProt A2AWL7 1-3003)
binds	PCGF6 (protein, UniProt Q99NA9 1-353) MDEAETDATENKRASEAKRASAMPPPPPPPPPISPPALIPAPAAGEEGPASLGQAGAAGCSRSRPPALEPERSLGRLRGRFEDYDEELEEEEEMEEEEEEEEEMSHFSLRLESGRADSEDEEERLINLVELTPYILCSICKGYLIDATTITECLHTFCKSCIVRHFYYSNRCPKCNIVVHQTQPLYNIRLDRQLQDIVYKLVINLEEREKKQMHDFYKERGLEVPKPAAPQPVPSSKGKTKKVLESVFRIPPELDMSLLLEFIGANEDTGHFKPLEKKFVRVSGEATIGHVEKFLRRKMGLDPACQVDIICGDHLLERYQTLREIRRAIGDTAMQDGLLVLHYGLVVSPLKIT
